PubChem BioAssay AID1671195 | Yale University, 2021
This is a random part of about 22,000 reagents tested. In the full data, about 1,510 (6.9%) are marked active. 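Active includes knockdowns raising or lowering LDL uptake; positive z-scores mean more uptake, negative mean less.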 Reagent sequences are not shown.

Assay: 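Regulators of LDL receptor activity judged by labelled LDL uptake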 (primary screen)
System: human Huh7 hepatoma cells
Reagent: siRNA pool against human genes, 18 nM
Time to read-out: about 2 to 2.5 days of knockdown, then 8 h LDL uptake
Challenge: DiI-labelled LDL at 30 µg/ml for 8 h, in lipoprotein-deficient serum medium
Read-out: 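Fluorescent LDL signal imaged in cells, scaled to the plate median, robust z-score for each replicate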
Reading the numbers: robust z-score: higher = more LDL uptake after knockdown
Hit rule: 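a gene counts as active if at least two replicate z-scores exceed ±2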

What is on record for SCAI?
robust z-score, replicate 1: 0.22; robust z-score, replicate 2: 0.298; robust z-score, replicate 3: -0.289; activity call: inactive

Which result is listed for SRD5A3?
robust z-score, replicate 1: 2.12; robust z-score, replicate 2: 1.49; robust z-score, replicate 3: 1.29; activity call: inactive

What did the screen give for USP16?
robust z-score, replicate 1: -0.506; robust z-score, replicate 2: -0.129; robust z-score, replicate 3: -0.563; activity call: inactive

With LDHAL6B, how do the results read?
robust z-score, replicate 1: 1.06; robust z-score, replicate 2: 1.29; robust z-score, replicate 3: 1.1; activity call: inactive

With GAB2, what was measured?
robust z-score, replicate 1: 1.45; robust z-score, replicate 2: 2.93; robust z-score, replicate 3: 1.76; activity call: inactive

For C1QTNF7, how do the results read?
robust z-score, replicate 1: 5.26; robust z-score, replicate 2: 3.5; robust z-score, replicate 3: 4.18; activity call: active

How did the screen score MANEAL?
robust z-score, replicate 1: -0.0893; robust z-score, replicate 2: 0.823; robust z-score, replicate 3: 0.41; activity call: inactive

How did the screen score ANKRD27?
robust z-score, replicate 1: 0.561; robust z-score, replicate 2: 1.11; robust z-score, replicate 3: 0.341; activity call: inactive

How did the screen score ZNF649?
robust z-score, replicate 1: -0.218; robust z-score, replicate 2: -0.169; robust z-score, replicate 3: 0.227; activity call: inactive

Which result is listed for LILRB1?
robust z-score, replicate 1: -1.3; robust z-score, replicate 2: -1.11; robust z-score, replicate 3: -1.6; activity call: inactive

How did the screen score AFG1L?
robust z-score, replicate 1: 2.01; robust z-score, replicate 2: 1.96; robust z-score, replicate 3: 2.1; activity call: active

How did the screen score LOC400782 (retired record)?
robust z-score, replicate 1: -0.607; robust z-score, replicate 2: -0.573; robust z-score, replicate 3: -0.445; activity call: inactive

How did the screen score ORM2?
robust z-score, replicate 1: 0.26; robust z-score, replicate 2: 0.382; robust z-score, replicate 3: 0.571; activity call: inactive

Records above whose gene name begins with A or a:
ANKRD27 → robust z-score, replicate 1 = 0.561; robust z-score, replicate 2 = 1.11; robust z-score, replicate 3 = 0.341; activity call = inactive
AFG1L → robust z-score, replicate 1 = 2.01; robust z-score, replicate 2 = 1.96; robust z-score, replicate 3 = 2.1; activity call = active

The list goes on:
What is on record for LOC440847 (retired record)?
robust z-score, replicate 1: -1.25; robust z-score, replicate 2: -1.59; robust z-score, replicate 3: -1.27; activity call: inactive

With LINC01101, what was measured?
robust z-score, replicate 1: -1.26; robust z-score, replicate 2: -1.14; robust z-score, replicate 3: -1.61; activity call: inactive

For PAMR1, how do the results read?
robust z-score, replicate 1: -0.102; robust z-score, replicate 2: -0.285; robust z-score, replicate 3: -0.494; activity call: inactive

For SERPING1, what was measured?
robust z-score, replicate 1: 0.511; robust z-score, replicate 2: 2.66; robust z-score, replicate 3: 1.08; activity call: inactive

With EHHADH, what was measured?
robust z-score, replicate 1: -0.803; robust z-score, replicate 2: -1.01; robust z-score, replicate 3: -0.962; activity call: inactive

With LOC389892 (retired record), what does the deposit list?
robust z-score, replicate 1: 1.95; robust z-score, replicate 2: 2.61; robust z-score, replicate 3: 2.51; activity call: active

For SMPDL3A, what does the deposit list?
robust z-score, replicate 1: 0.211; robust z-score, replicate 2: -0.374; robust z-score, replicate 3: -0.679; activity call: inactive

Which result is listed for SERPINE1?
robust z-score, replicate 1: -0.826; robust z-score, replicate 2: -0.166; robust z-score, replicate 3: 1.33; activity call: inactive

What did the screen give for ATP6V0E2?
robust z-score, replicate 1: 0.595; robust z-score, replicate 2: -0.121; robust z-score, replicate 3: 1.23; activity call: inactive

What is on record for CDIN1?
robust z-score, replicate 1: -0.0251; robust z-score, replicate 2: -0.506; robust z-score, replicate 3: -0.396; activity call: inactive

With VPS13C, what does the deposit list?
robust z-score, replicate 1: 0.565; robust z-score, replicate 2: 0.688; robust z-score, replicate 3: 1.95; activity call: inactive
